In publication PMC9574515 one finds binding data, which are given here for 7 molecules.

By UniProt entry, the sequences of proteins in these tests, tags left out.
UniProt Q9UNE7: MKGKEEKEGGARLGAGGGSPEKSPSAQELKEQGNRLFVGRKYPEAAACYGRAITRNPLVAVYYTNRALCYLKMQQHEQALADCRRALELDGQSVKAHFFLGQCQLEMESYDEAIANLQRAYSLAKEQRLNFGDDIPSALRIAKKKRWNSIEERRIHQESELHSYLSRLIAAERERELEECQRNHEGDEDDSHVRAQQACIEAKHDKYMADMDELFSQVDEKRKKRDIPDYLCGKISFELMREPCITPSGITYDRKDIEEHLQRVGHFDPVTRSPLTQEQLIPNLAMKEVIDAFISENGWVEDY
UniProt Q9UKJ5: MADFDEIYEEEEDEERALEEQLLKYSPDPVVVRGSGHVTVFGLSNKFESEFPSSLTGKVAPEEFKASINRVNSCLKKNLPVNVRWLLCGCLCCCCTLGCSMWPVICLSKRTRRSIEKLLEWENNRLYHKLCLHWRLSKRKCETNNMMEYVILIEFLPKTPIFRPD
UniProt Q9D9G3: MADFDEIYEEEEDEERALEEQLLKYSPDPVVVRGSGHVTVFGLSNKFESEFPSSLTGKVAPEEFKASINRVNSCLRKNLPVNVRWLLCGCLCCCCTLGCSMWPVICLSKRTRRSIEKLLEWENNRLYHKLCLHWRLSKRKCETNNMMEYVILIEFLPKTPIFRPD
UniProt Q9WUD1: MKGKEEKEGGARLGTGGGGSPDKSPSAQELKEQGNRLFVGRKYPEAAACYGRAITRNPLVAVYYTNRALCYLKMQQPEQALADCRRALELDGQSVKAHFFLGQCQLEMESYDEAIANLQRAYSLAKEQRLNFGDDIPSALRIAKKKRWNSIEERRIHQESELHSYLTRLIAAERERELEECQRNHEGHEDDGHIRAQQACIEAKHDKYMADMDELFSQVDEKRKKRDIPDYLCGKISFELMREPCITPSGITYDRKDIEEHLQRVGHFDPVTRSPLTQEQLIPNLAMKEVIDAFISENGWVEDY
UniProt Q64433: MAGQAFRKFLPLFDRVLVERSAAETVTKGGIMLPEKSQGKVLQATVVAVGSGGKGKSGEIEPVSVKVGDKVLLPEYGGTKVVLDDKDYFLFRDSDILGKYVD

These are yes or no findings as the source states them, for the method shown. Binding seen in cells or lysates may run through a third protein. These calls come from enrichment with a bait or labelling near it, and not all partners need be listed. For some of these results: No binding means not detected with the bait.

Assay [1] concerns the target STUB1-V5 (human (from the RefSeq entry NM_005861.3 and the capital gene symbol)) (UniProt Q9UNE7). Nature of the assay: affinity purification with mass spectrometry; anti-V5 IP of overexpressed V5-tagged STUB1 or CHIC2 from 32D cell lysates (NP40 lysis buffer), compared to Luciferase control IP, n = 4 replicates, LC-MS.
In assay [2] the target is V5-CHIC2 (human (from the RefSeq entry NM_012110.3 and the capital gene symbol)) (UniProt Q9UKJ5). The description is as above.
Assay [3] addresses STUB1-V5 (human (from the RefSeq entry NM_005861.3 and the capital gene symbol)) (UniProt Q9UNE7). Nature of the assay: affinity purification with mass spectrometry; STUB1 IP in Chic2 KO 32D cells compared to STUB1 IP in Chic2 WT 32D cells, n = 4 replicates.
The target of assay [4] is V5-CHIC2 (human (from the RefSeq entry NM_012110.3 and the capital gene symbol)) (UniProt Q9UKJ5). The assay can be described thus: affinity purification with mass spectrometry; CHIC2 IP in Stub1 KO 32D cells compared to CHIC2 IP in Stub1 WT 32D cells, n = 4 replicates.

As to “endogenous Chic2 (from UniProt Q9D9G3 1-165)”, the binding result in assay [1] is “binds”.

With “endogenous Stub1 (from UniProt Q9WUD1 1-304) (enzyme)”, in assay [2], the binding entry is “binds”.

On to Hspe1 (from UniProt Q64433 1-102), for which the figures for the binding result in assay [1] and in assay [3] were “binds” and “no binding (only in Chic2 KO 32D cells)”, respectively.

B1: Fcgr1 (receptor, UniProt P26151 25-404)
chain: EVVNATKAVITLQPPWVSIFQKENVTLWCEGPHLPGDSSTQWFINGTAVQISTPSYSIPEASFQDSGEYRCQIGSSMPSDPVQLQIHNDWLLLQASRRVLTEGEPLALRCHGWKNKLVYNVVFYRNGKSFQFSSDSEVAILKTNLSHSGIYHCSGTGRHRYTSAGVSITVKELFTTPVLRASVSSPFPEGSLVTLNCETNLLLQRPGLQLHFSFYVGSKILEYRNTSSEYHIARAEREDAGFYWCEVATEDSSVLKRSPELELQVLGPQSSAPVWFHILFYLSVGIMFSLNTVLYVKIHRLQREKKYNLEVPLVSEQGKKANSFQQVRSDGVYEEVTATASQTTPKEAPDGPRSSVGDCGPEQPEPLPPSDSTGAQTSQS
For the molecule B1, the binding result in assay [2] was “binds”; in assay [4], “no binding (only in Stub1 KO 32D cells)”.

B2: Lmnb1 (protein, UniProt P14733 1-588)
chain: MATATPVQQQRAGSRASAPATPLSPTRLSRLQEKEELRELNDRLAVYIDKVRSLETENSALQLQVTEREEVRGRELTGLKALYETELADARRALDDTARERAKLQIELGKFKAEHDQLLLNYAKKESDLSGAQIKLREYEAALNSKDAALATALGDKKSLEGDLEDLKDQIAQLEASLSAAKKQLADETLLKVDLENRCQSLTEDLEFRKNMYEEEINETRRKHETRLVEVDSGRQIEYEYKLAQALHEMREQHDAQVRLYKEELEQTYHAKLENARLSSEMNTSTVNSAREELMESRMRIESLSSQLSNLQKESRACLERIQELEDMLAKERDNSRRMLSDREREMAEIRDQMQQQLSDYEQLLDVKLALDMEISAYRKLLEGEEERLKLSPSPSSRVTVSRASSSRSVRTTRGKRKRVDVEESEASSSVSISHSASATGNVCIEEIDVDGKFIRLKNTSEQDQPMGGWEMIRKIGDTSVSYKYTSRYVLKAGQTVTVWAANAGVTASPPTDLIWKNQNSWGTGEDVKVILKNSQGEEVAQRSTVFKTTIPEEEEEEEEEPIGVAVEEERFHQQGAPRASNKSCAIM
Consider B2, for which the figures for the binding result in assay [1] and in assay [3] were “binds” and “no binding (only in Chic2 KO 32D cells)”, respectively.

B3: Itm2b (protein, UniProt O89051 1-266)
chain: MVKVTFNSALAQKEAKKDEPKSSEEALIVPPDAVAVDCKDPGDVVPVGQRRAWCWCMCFGLAFMLAGVILGGAYLYKYFALQPDDVYYCGLKYIKDDVILNEPSADAPAARYQTIEENIKIFEEDAVEFISVPVPEFADSDPANIVHDFNKKLTAYLDLNLDKCYVIPLNTSIVMPPKNLLELLINIKAGTYLPQSYLIHEHMVITDRIENVDNLGFFIYRLCHDKETYKLQRRETIRGIQKREASNCFTIRHFENKFAVETLICS
As to B3, in assay [2], the binding entry is listed as “binds”.

B4: Ifitm2 (protein, UniProt Q99J93 1-144)
chain: MSHNSQAFLSTNAGLPPSYETIKEEYGVTELGEPSNSAVVRTTVINMPREVSVPDHVVWSLFNTLFFNACCLGFVAYAYSVKSRDRKMVGDVVGAQAYASTAKCLNISSLIFSILMVIICIIIFSTTSVVVFQSFAQRTPHSGF
With B4, the binding entry in assay [2] was “binds”.
